Results are given in words; binding and its absence hold for the method and conditions named. For some of these results: In cells and extracts the contact can be indirect. Some binding calls cover weakened binding; strength is not graded here. For some of these results: Sequences can lack the tags named with a protein.

In experiment [1] the target is T1, TMEM16A-VC (UniProt Q8BHY3).
T1 sequence: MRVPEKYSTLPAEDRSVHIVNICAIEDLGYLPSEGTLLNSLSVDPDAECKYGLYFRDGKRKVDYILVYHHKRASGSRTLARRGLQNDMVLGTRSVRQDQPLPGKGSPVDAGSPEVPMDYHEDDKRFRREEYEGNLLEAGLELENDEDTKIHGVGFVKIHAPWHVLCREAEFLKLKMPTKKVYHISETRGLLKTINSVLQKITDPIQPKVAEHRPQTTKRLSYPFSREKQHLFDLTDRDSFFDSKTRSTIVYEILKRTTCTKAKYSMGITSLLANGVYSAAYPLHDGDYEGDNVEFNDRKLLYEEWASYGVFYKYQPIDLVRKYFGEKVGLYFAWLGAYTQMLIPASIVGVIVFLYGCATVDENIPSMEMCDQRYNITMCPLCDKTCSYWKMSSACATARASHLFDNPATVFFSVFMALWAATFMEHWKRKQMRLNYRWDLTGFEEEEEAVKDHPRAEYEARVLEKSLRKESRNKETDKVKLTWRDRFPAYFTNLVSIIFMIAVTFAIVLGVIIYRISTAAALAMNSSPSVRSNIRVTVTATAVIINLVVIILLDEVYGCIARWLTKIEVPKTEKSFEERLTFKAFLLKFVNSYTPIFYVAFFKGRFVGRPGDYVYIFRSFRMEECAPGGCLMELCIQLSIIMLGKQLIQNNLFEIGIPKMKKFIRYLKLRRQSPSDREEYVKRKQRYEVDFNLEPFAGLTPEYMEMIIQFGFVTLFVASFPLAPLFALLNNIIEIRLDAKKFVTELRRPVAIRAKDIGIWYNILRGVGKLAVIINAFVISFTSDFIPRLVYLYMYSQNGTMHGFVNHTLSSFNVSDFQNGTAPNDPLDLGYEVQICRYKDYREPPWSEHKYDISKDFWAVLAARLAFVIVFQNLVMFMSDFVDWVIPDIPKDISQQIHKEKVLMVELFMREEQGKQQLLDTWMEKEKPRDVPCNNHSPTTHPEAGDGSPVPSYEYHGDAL
Kind of experiment: split reporter.

Experiment [2] addresses T2, TMEM16A in isolated membranes (UniProt Q8BHY3).
T2 sequence: T1 sequence
Kind of experiment: in-situ interaction with isolated membranes.

In experiment [3] the target is T3, mouse TMEM16A (mTMEM16A, ac variant) tagged with 3XFlag (mouse) (UniProt Q8BHY3).
T3 sequence: T1 sequence
Kind of experiment: co-IP.

Take mRFP-FKBP12 (from UniProt P62942 1-108): the binding entry in experiment [1] is listed as “binds”.
On the same count and under the same terms, as for VN-FKBP12 (from UniProt P62942 1-108), the entry is “binds”.
As to “recombinant FKBP12 (from UniProt P62942 1-108)”, the binding entry in experiment [2] is listed as “binds”.
As for FKBP12 (from UniProt P62942 1-108), the binding result in experiment [3] is on record as “binds”.

The values above are taken from article doi:10.1101/2024.06.27.601078.
